Assay results published in paper doi:10.1101/480996.
Like-named read-outs stand apart in the source and are kept apart here. No constants are given. Whether binding was seen depends on the method and setting. In cells and extracts the contact can be indirect. Some binding calls cover weakened binding; strength is not graded here. Where a sequence is shown, tags or fusion partners need not be part of it.

T1: Ede1, fluorescently tagged (Syp1-Ede1 pair) (S. cerevisiae) (UniProt P34216)
T1 sequence: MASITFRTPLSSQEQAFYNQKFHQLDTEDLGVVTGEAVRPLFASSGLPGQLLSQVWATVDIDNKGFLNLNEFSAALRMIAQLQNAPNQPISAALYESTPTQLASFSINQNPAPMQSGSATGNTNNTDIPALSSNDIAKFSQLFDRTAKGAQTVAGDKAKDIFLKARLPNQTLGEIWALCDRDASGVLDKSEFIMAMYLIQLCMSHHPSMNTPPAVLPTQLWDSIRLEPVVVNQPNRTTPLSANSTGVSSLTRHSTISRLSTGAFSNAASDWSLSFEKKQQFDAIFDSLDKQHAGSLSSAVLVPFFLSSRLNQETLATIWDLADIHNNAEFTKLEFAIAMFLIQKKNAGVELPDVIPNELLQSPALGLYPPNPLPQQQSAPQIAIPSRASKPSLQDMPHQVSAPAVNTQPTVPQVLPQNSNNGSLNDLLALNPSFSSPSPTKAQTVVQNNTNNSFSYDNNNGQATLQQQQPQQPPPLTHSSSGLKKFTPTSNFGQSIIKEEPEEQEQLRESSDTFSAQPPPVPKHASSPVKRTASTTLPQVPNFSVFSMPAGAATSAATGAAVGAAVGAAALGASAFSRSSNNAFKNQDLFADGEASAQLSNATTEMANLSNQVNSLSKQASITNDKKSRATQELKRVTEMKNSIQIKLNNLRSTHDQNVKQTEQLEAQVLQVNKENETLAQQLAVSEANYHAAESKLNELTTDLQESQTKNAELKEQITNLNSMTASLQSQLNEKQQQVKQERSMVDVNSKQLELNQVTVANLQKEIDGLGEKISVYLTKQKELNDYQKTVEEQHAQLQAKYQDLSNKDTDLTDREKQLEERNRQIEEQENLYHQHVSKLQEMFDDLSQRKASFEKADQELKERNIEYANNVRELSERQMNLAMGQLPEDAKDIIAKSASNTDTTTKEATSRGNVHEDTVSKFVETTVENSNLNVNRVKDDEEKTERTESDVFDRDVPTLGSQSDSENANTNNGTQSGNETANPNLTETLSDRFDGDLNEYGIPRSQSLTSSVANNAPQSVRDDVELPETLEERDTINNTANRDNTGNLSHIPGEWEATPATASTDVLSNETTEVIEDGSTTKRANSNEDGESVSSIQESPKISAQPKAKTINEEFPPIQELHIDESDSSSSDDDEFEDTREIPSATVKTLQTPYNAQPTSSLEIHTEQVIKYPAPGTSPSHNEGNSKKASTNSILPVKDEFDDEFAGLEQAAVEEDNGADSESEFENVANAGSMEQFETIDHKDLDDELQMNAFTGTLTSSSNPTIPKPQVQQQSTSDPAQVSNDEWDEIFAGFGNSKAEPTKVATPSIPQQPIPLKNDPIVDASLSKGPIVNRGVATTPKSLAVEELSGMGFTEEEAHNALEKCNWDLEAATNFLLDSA

T2: End3, fluorescently tagged (Pan1-End3 pair of Table 1) (S. cerevisiae) (UniProt P39013)
T2 sequence: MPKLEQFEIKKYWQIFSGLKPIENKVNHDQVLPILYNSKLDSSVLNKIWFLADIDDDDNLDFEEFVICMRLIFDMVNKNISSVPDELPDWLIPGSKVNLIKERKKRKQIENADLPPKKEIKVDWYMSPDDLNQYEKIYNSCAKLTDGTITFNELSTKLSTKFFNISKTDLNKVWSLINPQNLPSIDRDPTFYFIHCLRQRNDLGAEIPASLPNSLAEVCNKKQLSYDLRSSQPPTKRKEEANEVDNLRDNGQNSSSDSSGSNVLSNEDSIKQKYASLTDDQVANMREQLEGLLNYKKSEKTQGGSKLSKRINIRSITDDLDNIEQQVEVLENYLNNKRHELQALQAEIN


What was measured:
Experiment in all cases: FRET or BRET
[1] = target: T1, Ede1, fluorescently tagged (Syp1-Ede1 pair) (S. cerevisiae)
[2] = target: T1, Ede1, fluorescently tagged (Syp1-Ede1 pair) (S. cerevisiae); remark: listed apart in the source
[3] = target: T2, End3, fluorescently tagged (Pan1-End3 pair of Table 1) (S. cerevisiae)
[4] = target: T2, End3, fluorescently tagged (Pan1-End3 pair of Table 1) (S. cerevisiae); remark: listed apart in the source

Row | binding [1] | binding [2] | binding [3] | binding [4] | Binder
1 | binds | binds |  |  | Syp1, fluorescently tagged (Syp1-Ede1 pair) (protein, UniProt P25623 1-870) MTEQRTKYADSILTTKSPYEATETIRIRLSQVKLLNKDFYLLFKELANLKRNYAQQLRKIIAENEDITKILNAQMIESNVLTPQEMSAFRFNSLGELRNVWDTVIEELKSDLKSSTEYYNTLDQQVVRELKESVENNTSWRESKDLHSKLSKNAASIEHYSKNNENSSHLEEARRQWDQQSPYLFELFETIDYNRLDTLKNCMLRFQTSFSDYLLNTTKECETVMTKFLAFEPQSEIDRFAKDASQYNFQLSSSSKEVVPNNASPASATGARPVSVSNGAANTEREKKSPQKDKRKSAFGNIGHRLASASSSLTHNDLMNNEFSDSTNNSSLKSKKSSHTLRSKVGSIFGRNKTKNKRQQQSSSNSHIQASITETPNNSSTRVSSTATSSIYQKQRRPTYSSSKSNNWTPGEASDTPPLPPHATPKNVDAPVTADTPPAQTFTPSEVPPSTPQQSSPPTAKEPDSSNLPKTVPISISQPPLQPQSKTKPLPVEPASPSISLPTATVDNQPSGQVDSRPLHIRAPALPPSRKQNFIHNRDSQLYDSLPNHGSGATPTSSSLSSIPQERPVSTLSSQITGELRELNPQATGSSTSLVGQSLFQHSSLDTSQFGLNASIAEVLNASFKDGMLQNSQLIGEIALNYLPNSVMNSPLPIGINLRINNGAKFEKVILNQAFIERVAPEEFKVNPSFIDSRTLGAIKYSIKEPIAPIVIHPVWRFESHQASVVLTVKMSPSLPDEISQIVIEDLVVFVNIDGANATSALSKPQGSFSKEKKRITWRFKEPVVLTRNGEGQRLIARFITDGLAHESAKGVITKFTISETDNVALPHSGAGSGITLTCQELDENNPFGGEWLDVNTKRTLTTGNYHGLA
2 |  |  | binds | binds | Pan1, fluorescently tagged (Pan1-End3 pair of Table 1) (protein, UniProt P32521 1-1480) MYNPYQQQGMGYQQQQQQQQQQPNGFYPQQQQGQSSNQPQGQPQPQQQMAFNQPQATGIGGMPQSFGNSFSSMPQQPQTGYNNNGNNGSVYGNGNFGQQPQQQQQQAKPQHTGYVPNSSMPMMNTTGTMPPPNPAQQPQLQSIQPQGTGYYQAANTANVHSVQPLQSQGTGYYVSTPNLISSNQTQQPLQAQGTGYYQSQPQQVPPPQQAQSLQPLKPQQTGFYLQPQNQAPLEPLKPTATGFVNSFANNGLNNDIKIPAIRLSFITAQDQAKFETLFRSIVTNGSNTVSGANCRKILMRSGLPPSQLARIWTLCDTSKAGELLFPEFALAMHLINDVLQGDTIPYELDSKTKNEVSSFIDAINLSIANQDSSANDAPKTPFDEFITAGVQNLQPQPTGYMPQTSFGIPLQSQITGGGVASALNPQSTGFMAPTTFNMSMNTGTPGLNPQITGGAPASMQPNITGNALQPQTTGMMPQTTGMMPQTTGMMPQTSFGVNLGPQLTGGALQSQYTGGYGSVMPQQSGPASMPNLSFNQQGLQSQLTGLQPQPTGFLPPSNFSATMPLTAQKTGFGNNEIYTKSNFNNNLIDNSSQDKISTEEKSLFYKIFETFDTQNKGLLDSPTAVEIFRKSGLNRADLEQIWNLCDINNTGQLNKQEFALGMHLVYGKLNGKPIPNVLPSSLIPSSTKLLDNLKNQLKTEPTTTKEKPSFGKIDALSYKNNDDDVLPNYRNRRKVYSAKNEEQSSFSSPSAKSVNHSSSTLQTDDISVDKTVEKKTAKPKYAGFSREINLKNIASLENEIKNISNPENCYDSSIPSDLTSRFDAIIAKLPNLFNEISTIDNEITNAKIQLYRKKNPSSIIGSGPNGEITENDRKKAKSRALLRARMSALTGKSTESEDSLSMEDEQQSAEIKRIQQENGKNQEIIKDIRSSISDISASLKSTMTGSNMISNQEFERWEFGIGLEDGVREFLDDLKSNSNKSVTESSPFVPSSTPTPVDDRSSSPSYSQFKTAEERAAYLKEQAKKRMKEKLAKFDKNRRNVTQSSRSISSENSREQPQQIAGSSNLVEPRATPFQEEKYVEVAQPTQPVQSTQPVQPTQPVQPTQPVQPTQPVQPTQPVQPTQPVQNVYNAKQESDDEDEDDEEKRLQEELKRLKLKKKADKEKRLAALRKQIEDAQNESDEEETNGKDNFGGHVNVPQAAPVAPSAAFSQNSTNAPRSVHAAVTPAAGKNSTGLPSTTMGHNPYFKDASASSTSTFDARAAEMQRRIQRGLDEDEDDGWSDEDESNNRVAVDNKVEEAKIGHPDHARAPPVTAAPLPSVTPVPPAVPVPQANTSNEKSSPIPIAPIPPSVTQEPPVPLAPPLPAVDGFQEPPIPSAPAIATAVQKSGSSTPALAGGVLPPPPPLPTQQASTSEPIIAHVDNYNGAEKGTGAYGSDSDDDVLSIPESVGTDEEEEGAQPVSTAGIPSIPPAGIPPPPPLP
